# PubChem BioAssay AID1224830 – NIAID – 2016
# Purpose: 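Regulators of TLR4 signalling towards TNF-alpha in macrophage-like cells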 (primary screen)
# System: human THP-1 monocytic leukaemia cells, TNF dual-luciferase reporter clone, PMA-differentiated to macrophage-like cells
# Reagents: siRNA pool against human genes, 50 nM
# Timing: LPS for 4 h, given about 3 days after siRNA transfection
# Treatment: bacterial LPS (TLR4 ligand), 10 ng/ml
# Measured: 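Ratio of firefly to renilla light, scaled to the plate median and expressed as a robust z-score per replicate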
# Scale: TNF reporter robust z-score: higher = stronger TNF reporter response to LPS
# Rule for the call: 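Each well counts as active if its z-score is over 2.8 or under -1.5; controls are left without a call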
# In all, the deposit lists about 18,000 reagents; this is a random part of them. About 2,900 of all reagents (16%) count as active. 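Calls are made per well; low scores hint the gene aids the LPS response, high scores that it dampens it.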 Repeated entries: four replicate wells of each siRNA pool.
target,PubChem SID,TNF reporter robust z-score,call
LHX3,SID315452374,1.76,inactive
LHX3,SID315452374,2.07,inactive
LHX3,SID315452374,0.49,inactive
LHX3,SID315452374,0.54,inactive
PROC,SID315450844,-1.11,inactive
PROC,SID315450844,1.08,inactive
PROC,SID315450844,0.12,inactive
PROC,SID315450844,1.97,inactive
EIF1B,SID315453980,-0.58,inactive
EIF1B,SID315453980,0.16,inactive
EIF1B,SID315453980,-0.72,inactive
EIF1B,SID315453980,-0.05,inactive
PDLIM1,SID315453061,0.54,inactive
PDLIM1,SID315453061,0.97,inactive
PDLIM1,SID315453061,-0.25,inactive
PDLIM1,SID315453061,0.2,inactive
PRPF4,SID315453065,0.35,inactive
PRPF4,SID315453065,-0.26,inactive
PRPF4,SID315453065,0.45,inactive
PRPF4,SID315453065,-0.31,inactive
NELFCD,SID315456742,0.37,inactive
NELFCD,SID315456742,0.9,inactive
NELFCD,SID315456742,-0.3,inactive
NELFCD,SID315456742,-0.15,inactive
DNAJC13,SID315455158,0.84,inactive
DNAJC13,SID315455158,0.58,inactive
DNAJC13,SID315455158,0.63,inactive
DNAJC13,SID315455158,0.98,inactive
SFXN4,SID315461470,1.13,inactive
SFXN4,SID315461470,0.89,inactive
SFXN4,SID315461470,1.67,inactive
SFXN4,SID315461470,2.12,inactive
PDCD2L,SID315460316,2.64,inactive
PDCD2L,SID315460316,1.92,inactive
PDCD2L,SID315460316,3.51,active
PDCD2L,SID315460316,2.95,active
TMEM138,SID315456757,1.13,inactive
TMEM138,SID315456757,1.48,inactive
TMEM138,SID315456757,0.58,inactive
TMEM138,SID315456757,1.73,inactive
TRA2A,SID315456202,0.76,inactive
TRA2A,SID315456202,0.25,inactive
TRA2A,SID315456202,0.48,inactive
TRA2A,SID315456202,0.69,inactive
DHRS9,SID315453877,1.16,inactive
DHRS9,SID315453877,0.62,inactive
DHRS9,SID315453877,1,inactive
DHRS9,SID315453877,-0.05,inactive
CATSPERG,SID315458604,-1.01,inactive
CATSPERG,SID315458604,-0.92,inactive
CATSPERG,SID315458604,-0.75,inactive
CATSPERG,SID315458604,-0.94,inactive
PIWIL4,SID315462195,-1.07,inactive
PIWIL4,SID315462195,0.34,inactive
PIWIL4,SID315462195,-0.62,inactive
PIWIL4,SID315462195,0.53,inactive
MAF,SID315449849,1.73,inactive
MAF,SID315449849,1.15,inactive
MAF,SID315449849,-0.28,inactive
MAF,SID315449849,0.32,inactive

Hits, of those listed so far:
target,PubChem SID,TNF reporter robust z-score,call
PDCD2L,SID315460316,3.51,active
PDCD2L,SID315460316,2.95,active

Additional results:
target,PubChem SID,TNF reporter robust z-score,call
PLA2G1B,SID315450613,-0.25,inactive
PLA2G1B,SID315450613,-0.13,inactive
PLA2G1B,SID315450613,-0.38,inactive
PLA2G1B,SID315450613,-0.53,inactive
CHRNA10,SID315458239,-0.85,inactive
CHRNA10,SID315458239,-0.39,inactive
CHRNA10,SID315458239,-0.94,inactive
CHRNA10,SID315458239,0.79,inactive
ROM1,SID315451156,0.33,inactive
ROM1,SID315451156,0.1,inactive
ROM1,SID315451156,-0.39,inactive
ROM1,SID315451156,-0.77,inactive
JPH1,SID315458114,-0.03,inactive
JPH1,SID315458114,-0.62,inactive
JPH1,SID315458114,0.19,inactive
NDUFA13,SID315456450,-0.66,inactive
NDUFA13,SID315456450,-0.73,inactive
NDUFA13,SID315456450,-0.4,inactive
NDUFA13,SID315456450,0.46,inactive
GTF2A1,SID315449089,-0.56,inactive
GTF2A1,SID315449089,-0.27,inactive
GTF2A1,SID315449089,-0.3,inactive
GTF2A1,SID315449089,-0.64,inactive
PAFAH1B1,SID315450408,0.19,inactive
PAFAH1B1,SID315450408,1.25,inactive
PAFAH1B1,SID315450408,1.31,inactive
PAFAH1B1,SID315450408,2.02,inactive
MYBBP1A,SID315454151,0.82,inactive
MYBBP1A,SID315454151,0.79,inactive
MYBBP1A,SID315454151,0.67,inactive
MYBBP1A,SID315454151,1.65,inactive
GABBR1,SID315448793,1.49,inactive
GABBR1,SID315448793,0.27,inactive
GABBR1,SID315448793,0.53,inactive
GABBR1,SID315448793,1.07,inactive
SLC16A4,SID315453059,-0.68,inactive
SLC16A4,SID315453059,-0.99,inactive
SLC16A4,SID315453059,-1.61,active
SLC16A4,SID315453059,-1.1,inactive
CAMTA1,SID315455115,0.63,inactive
CAMTA1,SID315455115,2.15,inactive
CAMTA1,SID315455115,0.36,inactive
CAMTA1,SID315455115,1.06,inactive
KATNIP,SID315455104,-0.58,inactive
KATNIP,SID315455104,-0.15,inactive
KATNIP,SID315455104,-1.03,inactive
KATNIP,SID315455104,-0.42,inactive
PPP1R12C,SID315457154,-1.29,inactive
PPP1R12C,SID315457154,-0.74,inactive
PPP1R12C,SID315457154,-0.7,inactive
PPP1R12C,SID315457154,-0.5,inactive
